In patent US7737157B2, “Pyrimidine compounds” (Hutchison MediPharma Enterprises Limited, priority 2008, dated 2010):
Some entries share one result that the patent states for a list of compounds. For at least one compound, name, drawing or mass did not settle the structure.

The chains behind the UniProt entries cited, without tags or fusion partners. Residues count along the entry.
UniProt P35968, 834-1162 limits assumed: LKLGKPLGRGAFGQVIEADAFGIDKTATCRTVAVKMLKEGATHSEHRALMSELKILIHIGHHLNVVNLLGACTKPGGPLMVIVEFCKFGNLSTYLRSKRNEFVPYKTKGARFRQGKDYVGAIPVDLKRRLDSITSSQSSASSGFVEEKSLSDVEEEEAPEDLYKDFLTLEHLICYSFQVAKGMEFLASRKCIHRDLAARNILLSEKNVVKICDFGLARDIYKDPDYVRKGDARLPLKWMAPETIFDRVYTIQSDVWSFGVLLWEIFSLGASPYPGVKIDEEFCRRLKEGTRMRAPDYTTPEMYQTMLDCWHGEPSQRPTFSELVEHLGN

What follows are molecules tested against T1, KDR (Homo sapiens, UniProt P35968) (assay: Inhibition of KDR kinase activity (Z'-LYTE Tyr1 Peptide assay kit)). Settings: KDR catalytic domain, result in words.
T1 construct: was mixed with a KDR catalytic domain (Invitrogen, Cat. PV3660); purchased Invitrogen PV3660
Format: biochemical
For `CNC(=O)c1c(C)oc2cc(Oc3ccnc(Nc4cccc(NC(=O)CN5CCN(C(C)C)CC5)c4)n3)ccc12` [Compound 46], the “inhibition of the activity of KDR” value was “effectively inhibited the activity of KDR”. With `CNC(=O)c1c(C)oc2cc(Oc3ccnc(Nc4cccc(CN5CCN(C)CC5)c4)n3)ccc12` [Compound 47] the “inhibition of the activity of KDR” value was “effectively inhibited the activity of KDR”. With `CNC(=O)c1c(C)oc2cc(Oc3ccnc(Nc4cccc(NC(=O)CN5CCOCC5)c4)n3)ccc12` [Compound 48] the “inhibition of the activity of KDR” value was “effectively inhibited the activity of KDR”. `CNC(=O)c1c(C)oc2cc(Oc3ccnc(Nc4cccc(NC(=O)CN5CCCCC5C)c4)n3)ccc12` (stereo not shown) [Compound 49] was tested, and the “inhibition of the activity of KDR” value was “effectively inhibited the activity of KDR”. With `CNC(=O)c1c(C)oc2cc(Oc3ccnc(Nc4cccc(NC(=O)CN5CCCC5)c4)n3)ccc12` [Compound 50] the “inhibition of the activity of KDR” value was “effectively inhibited the activity of KDR”. `CNC(=O)c1c(C)oc2cc(Oc3ccnc(Nc4cccc(NC(=O)CN5CCC[C@H]5CO)c4)n3)ccc12` [Compound 51] was tested, and the “inhibition of the activity of KDR” value was “effectively inhibited the activity of KDR”. With `CNC(=O)c1c(C)oc2cc(Oc3ccnc(Nc4ccc(OC)c(OC)c4)n3)ccc12` [Compound 52] the “inhibition of the activity of KDR” value was “effectively inhibited the activity of KDR”. With `CNC(=O)c1c(C)oc2cc(Oc3ccnc(Nc4ccc(OC)c(OC5CCN(C)CC5)c4)n3)ccc12` [Compound 53] the “inhibition of the activity of KDR” value was “effectively inhibited the activity of KDR”. For `CNC(=O)c1c(C)oc2cc(Oc3ccnc(Nc4cccc(NC(=O)CN5CCCCC5)c4)n3)ccc12` [Compound 54], the “inhibition of the activity of KDR” value was “effectively inhibited the activity of KDR”. In the case of `CNC(=O)c1c(C)oc2cc(Oc3ccnc(Nc4cccc(NC(=O)CN5CC(C)OC(C)C5)c4)n3)ccc12` (stereo not shown) [Compound 55], the “inhibition of the activity of KDR” value is reported as “effectively inhibited the activity of KDR”. For `CNC(=O)c1c(C)oc2cc(Oc3ccnc(Nc4cccc(N(C)C(=O)CN5CCN(C)CC5)c4)n3)ccc12` [Compound 56], the “inhibition of the activity of KDR” value was “effectively inhibited the activity of KDR”. `CNC(=O)c1c(C)oc2cc(Oc3ccnc(Nc4cccc(OC5CCN(C(C)C)C5)c4)n3)ccc12` (stereo not shown) [Compound 57] was tested, and the “inhibition of the activity of KDR” value was “effectively inhibited the activity of KDR”. For `CNC(=O)c1c(C)oc2cc(Oc3ccnc(Nc4cccc(OC5CCN(CC6CC6)C5)c4)n3)ccc12` (stereo not shown) [Compound 58], the “inhibition of the activity of KDR” value was “effectively inhibited the activity of KDR”. `CCN(CC)CC(=O)Nc1cccc(Nc2nccc(Oc3ccc4c(C(=O)NC)c(C)oc4c3)n2)c1` [Compound 59] was tested, and the “inhibition of the activity of KDR” value was “effectively inhibited the activity of KDR”. `CNC(=O)c1c(C)oc2cc(Oc3ccnc(Nc4cccc(NC(=O)CN(C)CCOC)c4)n3)ccc12` [Compound 60] was tested, and the “inhibition of the activity of KDR” value was “effectively inhibited the activity of KDR”. With `CNC(=O)c1c(C)oc2cc(Oc3ccnc(Nc4cccc(NC(=O)CN5CCCC5C)c4)n3)ccc12` (stereo not shown) [Compound 61] the “inhibition of the activity of KDR” value was “effectively inhibited the activity of KDR”. In the case of `CNC(=O)c1c(C)oc2cc(Oc3ccnc(Nc4cccc(NC(=O)CN5CCN(C)CC5)c4)n3)ccc12` [Compound 62], the “inhibition of the activity of KDR” value is reported as “effectively inhibited the activity of KDR”. For `CNC(=O)c1c(C)oc2cc(Oc3ccnc(Nc4cccc(OC5CCN(C6CCC6)C5)c4)n3)ccc12` (stereo not shown) [Compound 63], the “inhibition of the activity of KDR” value was “effectively inhibited the activity of KDR”. With `CNC(=O)c1c(C)oc2cc(Oc3ccnc(Nc4cccc(NC(=O)CN5CCC(O)CC5)c4)n3)ccc12` [Compound 64] the “inhibition of the activity of KDR” value was “effectively inhibited the activity of KDR”. In the case of `CNC(=O)c1c(C)oc2cc(Oc3ccnc(Nc4cccc(NC(=O)CN5CC[C@@H](O)C5)c4)n3)ccc12` [Compound 65], the “inhibition of the activity of KDR” value is reported as “effectively inhibited the activity of KDR”. In the case of `CNC(=O)c1c(C)oc2cc(Oc3ccnc(Nc4cccc(NC(=O)CN5CC[C@H](O)C5)c4)n3)ccc12` [Compound 66], the “inhibition of the activity of KDR” value is reported as “effectively inhibited the activity of KDR”. For `CNC(=O)c1c(C)oc2cc(Oc3ccnc(Nc4cccc(NC(=O)CN5CCC(CO)CC5)c4)n3)ccc12` [Compound 67], the “inhibition of the activity of KDR” value was “effectively inhibited the activity of KDR”. `CNC(=O)c1c(C)oc2cc(Oc3ccnc(Nc4cccc(NC(=O)CN5CCC[C@H]5COC)c4)n3)ccc12` [Compound 68] was tested, and the “inhibition of the activity of KDR” value was “effectively inhibited the activity of KDR”. With `CNC(=O)c1c(C)oc2cc(Oc3ccnc(Nc4cccc(CN5CCOCC5)c4)n3)ccc12` [Compound 70] the “inhibition of the activity of KDR” value was “effectively inhibited the activity of KDR”. In the case of `C#Cc1cccc(Nc2nccc(Oc3ccc4c(C(=O)NC)c(C)oc4c3)n2)c1` [Compound 71], the “inhibition of the activity of KDR” value is reported as “effectively inhibited the activity of KDR”. For `CNC(=O)c1c(C)oc2cc(Oc3ccnc(Nc4cccc(N5CCNCC5=O)c4)n3)ccc12` [Compound 72], the “inhibition of the activity of KDR” value was “effectively inhibited the activity of KDR”. `CNC(=O)c1c(C)oc2cc(Oc3ccnc(Nc4cccc(OC5CCN(C)CC5)c4)n3)ccc12` [Compound 73] was tested, and the “inhibition of the activity of KDR” value was “effectively inhibited the activity of KDR”. With `CNC(=O)c1c(C)oc2cc(Oc3ccnc(Nc4cccc(N(C)C)c4)n3)ccc12` [Compound 74] the “inhibition of the activity of KDR” value was “effectively inhibited the activity of KDR”. For `CNC(=O)c1c(C)oc2cc(Oc3ccnc(Nc4cccc(N)c4)n3)ccc12` [Compound 75], the “inhibition of the activity of KDR” value was “effectively inhibited the activity of KDR”. `CNC(=O)c1c(C)oc2cc(Oc3ccnc(Nc4ccc5c(cnn5C)c4)n3)ccc12` [Compound 77] was tested, and the “inhibition of the activity of KDR” value was “effectively inhibited the activity of KDR”. `CNC(=O)c1c(C)oc2cc(Oc3ccnc(Nc4cccc(N5CCOCC5=O)c4)n3)ccc12` [Compound 78] was tested, and the “inhibition of the activity of KDR” value was “effectively inhibited the activity of KDR”. With `CNC(=O)c1c(C)oc2cc(Oc3ccnc(Nc4cccc(NC(=O)[C@@H](C)N(C)C)c4)n3)ccc12` [Compound 79] the “inhibition of the activity of KDR” value was “effectively inhibited the activity of KDR”. With `CNC(=O)c1c(C)oc2cc(Oc3ccnc(Nc4ccc(F)c(NC(=O)CN(C)C)c4)n3)ccc12` [Compound 80] the “inhibition of the activity of KDR” value was “effectively inhibited the activity of KDR”. With `CNC(=O)c1c(C)oc2cc(Oc3ccnc(Nc4ccc5c(c4)NCC5)n3)ccc12` [Compound 81] the “inhibition of the activity of KDR” value was “effectively inhibited the activity of KDR”. For `CC[C@H](C(=O)Nc1cccc(Nc2nccc(Oc3ccc4c(C(=O)NC)c(C)oc4c3)n2)c1)N(C)C` [Compound 82], the “inhibition of the activity of KDR” value was “effectively inhibited the activity of KDR”. In the case of `CC[C@@H](C(=O)Nc1cccc(Nc2nccc(Oc3ccc4c(C(=O)NC)c(C)oc4c3)n2)c1)N(C)C` [Compound 83], the “inhibition of the activity of KDR” value is reported as “effectively inhibited the activity of KDR”. For `CNC(=O)c1c(C)oc2cc(Oc3ccnc(Nc4ccc(C)c(NC(=O)CN(C)C)c4)n3)ccc12` [Compound 84], the “inhibition of the activity of KDR” value was “effectively inhibited the activity of KDR”. In the case of `CNC(=O)c1c(C)oc2cc(Oc3ccnc(Nc4ccc(OC)c(NC(=O)CN(C)C)c4)n3)ccc12` [Compound 85], the “inhibition of the activity of KDR” value is reported as “effectively inhibited the activity of KDR”. With `CNC(=O)c1c(C)oc2cc(Oc3ccnc(Nc4cccc(Cl)c4)n3)ccc12` [Compound 86] the “inhibition of the activity of KDR” value was “effectively inhibited the activity of KDR”. In the case of `CNC(=O)c1c(C)oc2cc(Oc3ccnc(Nc4cccc(F)c4)n3)ccc12` [Compound 87], the “inhibition of the activity of KDR” value is reported as “effectively inhibited the activity of KDR”. In the case of `CNC(=O)c1c(C)oc2cc(Oc3ccnc(Nc4ccc(OC)cc4)n3)ccc12` [Compound 88], the “inhibition of the activity of KDR” value is reported as “effectively inhibited the activity of KDR”. With `CNC(=O)c1c(C)oc2cc(Oc3ccnc(Nc4cc(NC(=O)CN(C)C)cc(C(F)(F)F)c4)n3)ccc12` [Compound 89] the “inhibition of the activity of KDR” value was “effectively inhibited the activity of KDR”. In the case of `CNC(=O)c1c(C)oc2cc(Oc3ccnc(Nc4cc(NC(=O)CN(C)C)cc(OC)c4)n3)ccc12` [Compound 90], the “inhibition of the activity of KDR” value is reported as “effectively inhibited the activity of KDR”. For `CNC(=O)c1c(C)oc2cc(Oc3ccnc(Nc4ccc(Cl)c(NC(=O)CN(C)C)c4)n3)ccc12` [Compound 91], the “inhibition of the activity of KDR” value was “effectively inhibited the activity of KDR”. In the case of `CNC(=O)c1c(C)oc2cc(Oc3ccnc(Nc4cccc(NC(=O)[C@H](C)N(C)C)c4)n3)ccc12` [Compound 92], the “inhibition of the activity of KDR” value is reported as “effectively inhibited the activity of KDR”. With `CNC(=O)c1c(C)oc2cc(Oc3ccnc(Nc4ccc5c(c4)N(C)CC5)n3)ccc12` [Compound 93] the “inhibition of the activity of KDR” value was “effectively inhibited the activity of KDR”. `CNC(=O)c1c(C)oc2cc(Oc3ccnc(Nc4cccc(NC(=O)C(C)(C)N(C)C)c4)n3)ccc12` [Compound 94] was tested, and the “inhibition of the activity of KDR” value was “effectively inhibited the activity of KDR”. `CNC(=O)c1c(C)oc2cc(Oc3ccnc(Nc4cccc(NC(=O)C5(N(C)C)CC5)c4)n3)ccc12` [Compound 95] was tested, and the “inhibition of the activity of KDR” value was “effectively inhibited the activity of KDR”. For `CNC(=O)c1c(C)oc2cc(Oc3ccnc(Nc4cccc(N5CCN(C)CC5=O)c4)n3)ccc12` [Compound 96], the “inhibition of the activity of KDR” value was “effectively inhibited the activity of KDR”. In the case of `CNC(=O)c1c(C)oc2cc(Oc3ccnc(Nc4cccc(CNC(=O)CN(C)C)c4)n3)ccc12` [Compound 97], the “inhibition of the activity of KDR” value is reported as “effectively inhibited the activity of KDR”. With `CCN1CCN(c2cccc(Nc3nccc(Oc4ccc5c(C(=O)NC)c(C)oc5c4)n3)c2)C(=O)C1` [Compound 98] the “inhibition of the activity of KDR” value was “effectively inhibited the activity of KDR”. In the case of `CNC(=O)c1c(C)oc2cc(Oc3ccnc(Nc4cccc(CN(C)C)c4)n3)ccc12` [Compound 99], the “inhibition of the activity of KDR” value is reported as “effectively inhibited the activity of KDR”. For `CNC(=O)c1c(C)oc2cc(Oc3ccnc(Nc4ccc(OC)c(CCN5CCOCC5)c4)n3)ccc12` [Compound 100], the “inhibition of the activity of KDR” value was “effectively inhibited the activity of KDR”. `CNC(=O)c1c(C)oc2cc(Oc3ccnc(Nc4ccc(OCCOC)c(OCCOC)c4)n3)ccc12` [Compound 101] was tested, and the “inhibition of the activity of KDR” value was “effectively inhibited the activity of KDR”. With `CNC(=O)c1c(C)oc2cc(Oc3ccnc(Nc4ccc(C)nc4)n3)ccc12` [Compound 102] the “inhibition of the activity of KDR” value was “effectively inhibited the activity of KDR”.
